This is an account of results in PMC8455547.

By UniProt entry, the sequences of proteins in these tests, tags left out.
UniProt Q9UBN7: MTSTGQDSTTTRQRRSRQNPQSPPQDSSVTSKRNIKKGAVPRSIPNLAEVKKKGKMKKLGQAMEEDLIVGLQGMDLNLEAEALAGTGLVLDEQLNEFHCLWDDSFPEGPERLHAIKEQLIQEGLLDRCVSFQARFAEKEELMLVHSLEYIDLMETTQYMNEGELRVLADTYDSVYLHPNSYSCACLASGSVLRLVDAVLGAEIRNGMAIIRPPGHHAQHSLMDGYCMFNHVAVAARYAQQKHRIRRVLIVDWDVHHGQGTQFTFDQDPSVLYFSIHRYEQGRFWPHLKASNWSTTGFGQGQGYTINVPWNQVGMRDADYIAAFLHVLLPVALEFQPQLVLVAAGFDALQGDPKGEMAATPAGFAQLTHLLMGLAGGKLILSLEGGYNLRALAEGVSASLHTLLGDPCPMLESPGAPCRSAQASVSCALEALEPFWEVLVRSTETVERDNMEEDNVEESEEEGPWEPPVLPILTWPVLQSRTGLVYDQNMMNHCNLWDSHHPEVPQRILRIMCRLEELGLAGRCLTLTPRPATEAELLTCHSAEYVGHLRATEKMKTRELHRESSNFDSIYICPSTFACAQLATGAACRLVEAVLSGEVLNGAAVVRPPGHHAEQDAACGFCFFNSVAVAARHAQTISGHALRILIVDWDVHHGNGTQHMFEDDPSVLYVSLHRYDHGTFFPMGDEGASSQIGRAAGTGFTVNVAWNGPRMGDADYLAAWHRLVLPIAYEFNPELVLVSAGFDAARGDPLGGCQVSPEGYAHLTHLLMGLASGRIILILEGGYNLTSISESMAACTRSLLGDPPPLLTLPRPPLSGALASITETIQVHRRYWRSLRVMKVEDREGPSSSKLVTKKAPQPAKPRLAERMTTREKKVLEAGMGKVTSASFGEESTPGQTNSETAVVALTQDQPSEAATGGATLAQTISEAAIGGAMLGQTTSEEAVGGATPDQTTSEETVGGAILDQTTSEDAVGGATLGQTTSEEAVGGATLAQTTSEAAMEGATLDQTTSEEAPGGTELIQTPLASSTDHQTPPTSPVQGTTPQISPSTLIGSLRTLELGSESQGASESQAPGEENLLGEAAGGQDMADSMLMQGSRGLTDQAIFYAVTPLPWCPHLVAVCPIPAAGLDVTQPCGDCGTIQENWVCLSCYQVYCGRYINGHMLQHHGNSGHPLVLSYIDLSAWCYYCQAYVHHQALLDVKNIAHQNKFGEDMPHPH
UniProt Q5SQI0: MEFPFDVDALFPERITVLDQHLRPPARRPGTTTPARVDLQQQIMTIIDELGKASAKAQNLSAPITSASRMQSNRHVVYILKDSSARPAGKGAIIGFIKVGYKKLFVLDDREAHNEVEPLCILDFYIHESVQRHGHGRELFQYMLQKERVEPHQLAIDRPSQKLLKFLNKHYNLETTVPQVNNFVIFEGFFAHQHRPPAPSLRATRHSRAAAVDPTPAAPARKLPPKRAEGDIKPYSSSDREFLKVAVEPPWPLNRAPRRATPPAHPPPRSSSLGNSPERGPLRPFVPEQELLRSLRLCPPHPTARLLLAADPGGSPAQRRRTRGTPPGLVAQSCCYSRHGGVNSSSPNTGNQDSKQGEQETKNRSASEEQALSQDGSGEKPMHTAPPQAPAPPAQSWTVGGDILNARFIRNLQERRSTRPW

Experiment [1] addresses T1, GST–Id2 (expressed in mammalian cells) (UniProt Q02363).
T1 sequence: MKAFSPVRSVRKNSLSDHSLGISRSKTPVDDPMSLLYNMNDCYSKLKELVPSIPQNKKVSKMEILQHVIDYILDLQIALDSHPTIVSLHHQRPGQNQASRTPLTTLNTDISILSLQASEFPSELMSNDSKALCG
The experiment can be described thus: pull-down; lysates of co-transfected cells (HEK293T where named) mixed with glutathione–sepharose beads, 3 h at 4 °C; 50 mM Tris-Cl pH 7.4, 150 mM NaCl, 1 mM EDTA, 0.5% Triton X-100; immunoblotting; in some panels with HA–Akt WT or CA Akt, or Akt inhibitor VIII (1 μM, 6 h). For orientation: Immunoblotting shows a protein as a band on a membrane.

Experiment [2] concerns the target T1, GST–Id2 (expressed in mammalian cells). The description is as above. The source holds these as a separate data set.

Where two headings read alike, the source gives them in different places. These are yes or no findings as the source states them, for the method shown. In cells and extracts the contact can be indirect. Some entries that bind do so weakly or less than the wild type. Tags and fused reporters may be left off the sequences shown.

Take “HDAC6 (from UniProt Q9UBN7 1-1215) (enzyme)”: the binding result in experiment [1] is given as “no binding”.
The same measure, in the same setting: with “αTAT (from UniProt Q5SQI0 1-421) (enzyme)” the entry was “binds weakly”.

B1: Sirt2 (construct of Fig. 4A) (enzyme, UniProt Q8IXJ6 1-389)
chain: MAEPDPSHPLETQAGKVQEAQDSDSDSEGGAAGGEADMDFLRNLFSQTLSLGSQKERLLDELTLEGVARYMQSERCRRVICLVGAGISTSAGIPDFRSPSTGLYDNLEKYHLPYPEAIFEISYFKKHPEPFFALAKELYPGQFKPTICHYFMRLLKDKGLLLRCYTQNIDTLERIAGLEQEDLVEAHGTFYTSHCVSASCRHEYPLSWMKEKIFSEVTPKCEDCQSLVKPDIVFFGESLPARFFSCMQSDFLKVDLLLVMGTSLQVQPFASLISKAPLSTPRLLINKEKAGQSDPFLGMIMGLGGGMDFDSKKAYRDVAWLGECDQGCLALAELLGWKKELEDLVRREHASIDAQSGAGVPNPSTSASPKKSPPPAKDEARTTEREKPQ
For B1, the binding entry in experiment [2] is listed as “binds”.

B2: GFP–Sirt2 full length (enzyme, UniProt Q8IXJ6 1-389)
chain: MAEPDPSHPLETQAGKVQEAQDSDSDSEGGAAGGEADMDFLRNLFSQTLSLGSQKERLLDELTLEGVARYMQSERCRRVICLVGAGISTSAGIPDFRSPSTGLYDNLEKYHLPYPEAIFEISYFKKHPEPFFALAKELYPGQFKPTICHYFMRLLKDKGLLLRCYTQNIDTLERIAGLEQEDLVEAHGTFYTSHCVSASCRHEYPLSWMKEKIFSEVTPKCEDCQSLVKPDIVFFGESLPARFFSCMQSDFLKVDLLLVMGTSLQVQPFASLISKAPLSTPRLLINKEKAGQSDPFLGMIMGLGGGMDFDSKKAYRDVAWLGECDQGCLALAELLGWKKELEDLVRREHASIDAQSGAGVPNPSTSASPKKSPPPAKDEARTTEREKPQ
On to B2, for which the binding result in experiment [2] is on record as “binds”.
